Measured values as given in the supplement of paper PMC12067093, “Discovery and optimisation of a covalent ligand for TRIM25 and its application to targeted protein ubiquitination” (Chemical Science, 2025).
Some of the results follow.

Compound: CC1Cc2ccccc2N1C(=O)C1CCCN(C1)C(=O)CCl (mixture of isomers) [TRIM25 ligand 11 (diastereomer mixture)]
Test: probe-labelled cysteine peptide fold change vs DMSO (competition) (log2 fold change); higher = less target engagement (more negative = stronger competition)
Conditions: THP-1, incubation time: 4 h
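Further: competitive chemoproteomic profiling in live THP-1 cells with an iodoacetamide desthiobiotin (IA-DTB) probe, comparing probe-labelled peptide intensities in compound-treated cells against DMSO-treated controls.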

How did the “probe-labelled cysteine peptide fold change” value (10 µM) turn out when “OPA1_O60313_853_TALNHCNLCR (UniProt O60313)” was run?
The value was -0.00121.

What about the “probe-labelled cysteine peptide fold change” value (50 µM) of the same target?
The value was 0.349.

What does the source list for “OLA1_Q9NTK5_117_GAHNGQGLGNAFLSHISACDGIFHLTR (UniProt Q9NTK5)”?
probe-labelled cysteine peptide fold change (10 µM): 0.114; probe-labelled cysteine peptide fold change (50 µM): -0.139

How did the “probe-labelled cysteine peptide fold change” value (10 µM) turn out when “PAG1_Q9NWQ8_179_DSSSQENMVEDCLYETVK (UniProt Q9NWQ8)” was run?
Its value is -0.115.

What about the “probe-labelled cysteine peptide fold change” value (50 µM) of the same target?
Its value is -0.549.

How did the “probe-labelled cysteine peptide fold change” value (10 µM) turn out when “OSBP_P22059_224_VEDLSTCNDLIAK (UniProt P22059)” was run?
The value was 0.0397.

What about the “probe-labelled cysteine peptide fold change” value (50 µM) of the same target?
The value was -0.0272.

Which results are given for “P3H1_Q32P28_645_TVTAEVQPQCGR (UniProt Q32P28)”?
probe-labelled cysteine peptide fold change (10 µM): -0.00504; probe-labelled cysteine peptide fold change (50 µM): 0.0522

For “PA2G4_Q9UQ80_296_MGVVECAKHELLQPFNVLYEK (UniProt Q9UQ80)”, which “probe-labelled cysteine peptide fold change” value (10 µM) is on record?
The value was -0.781.

What about the “probe-labelled cysteine peptide fold change” value (50 µM) of the same target?
The value was -0.434.

“PARP10_Q53GL7_514_SLLGSISCHVLCLEHPGSAR (UniProt Q53GL7)” was tested. Which “probe-labelled cysteine peptide fold change” value (10 µM) did it give?
The value was 0.0103.

And the “probe-labelled cysteine peptide fold change” value (50 µM)?
Its value is -0.0332.

Which results are given for “P4HA1_P13674_293_QKYEMLCR (UniProt P13674)”?
probe-labelled cysteine peptide fold change (10 µM): -0.0868; probe-labelled cysteine peptide fold change (50 µM): -0.162

With “OSTF1_Q92882_185_LAFDMATNAACASLLK (UniProt Q92882)” as the target, how does the “probe-labelled cysteine peptide fold change” value (10 µM) read?
The value was 0.0162.

What about the “probe-labelled cysteine peptide fold change” value (50 µM) of the same target?
Its value is -0.00932.

“OSTF1_Q92882_185_LAFDMATNAACASLLKK (UniProt Q92882)” was tested. Which “probe-labelled cysteine peptide fold change” value (10 µM) did it give?
The value was -0.181.

What about the “probe-labelled cysteine peptide fold change” value (50 µM) of the same target?
Its value is -0.421.

Which “probe-labelled cysteine peptide fold change” value (10 µM) does the source give for “OLA1_Q9NTK5_187_LKPEYDIMCK (UniProt Q9NTK5)” here?
Its value is -0.0298.

What about the “probe-labelled cysteine peptide fold change” value (50 µM) of the same target?
Its value is -0.159.

With “PAPOLA_P51003_36_ETDCVLTQK (UniProt P51003)” as the target, how does the “probe-labelled cysteine peptide fold change” value (10 µM) read?
The value was -0.114.

And the “probe-labelled cysteine peptide fold change” value (50 µM)?
Its value is -0.162.

“OSBPL1A_Q9BXW6_56_SNLGWTPLHLACYFGHR (UniProt Q9BXW6)” was tested. Which “probe-labelled cysteine peptide fold change” value (10 µM) did it give?
The value was -0.158.

What about the “probe-labelled cysteine peptide fold change” value (50 µM) of the same target?
The value was 0.106.

How did the “probe-labelled cysteine peptide fold change” value (10 µM) turn out when “OPA1_O60313_801_CNEEHPAYLASDEITTVR (UniProt O60313)” was run?
The value was -0.314.

And the “probe-labelled cysteine peptide fold change” value (50 µM)?
The value was 0.0179.

How did the “probe-labelled cysteine peptide fold change” value (10 µM) turn out when “PARP10_Q53GL7_768_GDCTILR (UniProt Q53GL7)” was run?
The value was -0.126.

What about the “probe-labelled cysteine peptide fold change” value (50 µM) of the same target?
Its value is 0.0246.

Which “probe-labelled cysteine peptide fold change” value (10 µM) does the source give for “PAFAH1B3_Q15102_205_LGYTPVCR (UniProt Q15102)” here?
The value was 0.00158.

And the “probe-labelled cysteine peptide fold change” value (50 µM)?
The value was -0.00455.

With “OSGEP_Q9NPF4_265_AMAHCGSQEALIVGGVGCNVR (UniProt Q9NPF4)” as the target, how does the “probe-labelled cysteine peptide fold change” value (10 µM) read?
Its value is 0.000797.

And the “probe-labelled cysteine peptide fold change” value (50 µM)?
The value was -0.0313.

What does the source list for “PARG_Q86W56_608_IALCLPNICTQPIPLLK (UniProt Q86W56)”?
probe-labelled cysteine peptide fold change (10 µM): 0.0871; probe-labelled cysteine peptide fold change (50 µM): 0.101

“ORC1_Q13415_506_LHVSAVPESLPCR (UniProt Q13415)” was tested. Which “probe-labelled cysteine peptide fold change” value (10 µM) did it give?
The value was 0.149.

What about the “probe-labelled cysteine peptide fold change” value (50 µM) of the same target?
Its value is 0.139.

“OSBPL1A_Q9BXW6_739+746_CVLNFKPCGLFGK (UniProt Q9BXW6)” was tested. Which “probe-labelled cysteine peptide fold change” value (10 µM) did it give?
The value was -0.0308.

And the “probe-labelled cysteine peptide fold change” value (50 µM)?
Its value is -0.0556.

Which results are given for “PARN_O95453_302_LVIGHNMLLDVMHTVHQFYCPLPADLSEFK (UniProt O95453)”?
probe-labelled cysteine peptide fold change (10 µM): -0.037; probe-labelled cysteine peptide fold change (50 µM): -0.277

Which “probe-labelled cysteine peptide fold change” value (10 µM) does the source give for “P2RX4_Q99571_270_AASLCLPR (UniProt Q99571)” here?
The value was 0.0409.

What about the “probe-labelled cysteine peptide fold change” value (50 µM) of the same target?
The value was -0.0989.

Which “probe-labelled cysteine peptide fold change” value (10 µM) does the source give for “OSBPL8_Q9BZF1_494_CLWIHPR (UniProt Q9BZF1)” here?
The value was -0.096.

What about the “probe-labelled cysteine peptide fold change” value (50 µM) of the same target?
The value was 0.00681.

“PALD1_Q9ULE6_312_DAHGPPPALVFSCQMGVGR (UniProt Q9ULE6)” was tested. Which “probe-labelled cysteine peptide fold change” value (10 µM) did it give?
Its value is 0.215.

And the “probe-labelled cysteine peptide fold change” value (50 µM)?
Its value is 0.15.

Which results are given for “PAK1IP1_Q9NWT1_288_KVPPSLLCEINTNAR (UniProt Q9NWT1)”?
probe-labelled cysteine peptide fold change (10 µM): -0.0366; probe-labelled cysteine peptide fold change (50 µM): 0.0998

With “PARN_O95453_205_NLDLEPCTGFQR (UniProt O95453)” as the target, how does the “probe-labelled cysteine peptide fold change” value (10 µM) read?
Its value is 0.0315.

What about the “probe-labelled cysteine peptide fold change” value (50 µM) of the same target?
Its value is 0.114.

“PARP12_Q9H0J9_85_AHQGSKPGCVGLCAQLHLCR (UniProt Q9H0J9)” was tested. Which “probe-labelled cysteine peptide fold change” value (10 µM) did it give?
The value was -0.0721.

What about the “probe-labelled cysteine peptide fold change” value (50 µM) of the same target?
The value was 0.28.

“PA2G4_Q9UQ80_85+87_GIAFPTSISVNNCVCHFSPLK (UniProt Q9UQ80)” was tested. Which “probe-labelled cysteine peptide fold change” value (10 µM) did it give?
The value was 0.241.

And the “probe-labelled cysteine peptide fold change” value (50 µM)?
Its value is -0.232.

Which results are given for “ORC5_O43913_409_CTVSLDFIR (UniProt O43913)”?
probe-labelled cysteine peptide fold change (10 µM): 0.0546; probe-labelled cysteine peptide fold change (50 µM): 0.141

Which “probe-labelled cysteine peptide fold change” value (10 µM) does the source give for “PAICS_P22234_295_ACGNFGIPCELR (UniProt P22234)” here?
Its value is 0.0444.

What about the “probe-labelled cysteine peptide fold change” value (50 µM) of the same target?
The value was -0.125.

With “PAIP1_Q9H074_222_LCNYLSHHLTISPQSGNFR (UniProt Q9H074)” as the target, how does the “probe-labelled cysteine peptide fold change” value (10 µM) read?
The value was 0.19.

What about the “probe-labelled cysteine peptide fold change” value (50 µM) of the same target?
Its value is -0.0132.

Which “probe-labelled cysteine peptide fold change” value (10 µM) does the source give for “PAFAH1B1_P43034_252_MVRPNQDGTLIASCSNDQTVR (UniProt P43034)” here?
The value was 0.142.

What about the “probe-labelled cysteine peptide fold change” value (50 µM) of the same target?
The value was 0.0289.

With “PAN2_Q504Q3_263_LTGLACDR (UniProt Q504Q3)” as the target, how does the “probe-labelled cysteine peptide fold change” value (10 µM) read?
Its value is 0.0543.

And the “probe-labelled cysteine peptide fold change” value (50 µM)?
Its value is 0.17.

What does the source list for “PAIP1_Q9H074_358_IENVVLDANCSR (UniProt Q9H074)”?
probe-labelled cysteine peptide fold change (10 µM): 0.0975; probe-labelled cysteine peptide fold change (50 µM): 0.122

With “ORC3_Q9UBD5_158_LISQLMDCCVDIK (UniProt Q9UBD5)” as the target, how does the “probe-labelled cysteine peptide fold change” value (10 µM) read?
The value was -0.0854.

What about the “probe-labelled cysteine peptide fold change” value (50 µM) of the same target?
Its value is -0.134.

With “PAICS_P22234_100_CGETAFIAPQCEMIPIEWVCR (UniProt P22234)” as the target, how does the “probe-labelled cysteine peptide fold change” value (10 µM) read?
The value was 0.00496.

And the “probe-labelled cysteine peptide fold change” value (50 µM)?
Its value is 0.1.

With “PAICS_P22234_91+100_CGETAFIAPQCEMIPIEWVCR (UniProt P22234)” as the target, how does the “probe-labelled cysteine peptide fold change” value (10 µM) read?
Its value is -0.0313.

What about the “probe-labelled cysteine peptide fold change” value (50 µM) of the same target?
The value was -0.0795.

For “OPTN_Q96CV9_8_SHQPLSCLTEK (UniProt Q96CV9)”, which “probe-labelled cysteine peptide fold change” value (10 µM) is on record?
Its value is 0.154.

What about the “probe-labelled cysteine peptide fold change” value (50 µM) of the same target?
The value was -0.219.

How did the “probe-labelled cysteine peptide fold change” value (10 µM) turn out when “OTULIN_Q96BN8_215_QIACDELFTNEAEEYSLYEAVK (UniProt Q96BN8)” was run?
The value was -0.114.

And the “probe-labelled cysteine peptide fold change” value (50 µM)?
The value was 0.229.

Which “probe-labelled cysteine peptide fold change” value (10 µM) does the source give for “PAICS_P22234_81+91_CGETAFIAPQCEMIPIEWVCR (UniProt P22234)” here?
The value was -0.528.

What about the “probe-labelled cysteine peptide fold change” value (50 µM) of the same target?
Its value is -0.284.

What does the source list for “OSGEPL1_Q9H4B0_249_NCDFSFTGLQHVTDK (UniProt Q9H4B0)”?
probe-labelled cysteine peptide fold change (10 µM): -0.0592; probe-labelled cysteine peptide fold change (50 µM): -0.0361

What does the source list for “OSGEPL1_Q9H4B0_295_GQILSSAADIAATVQHTMACHLVK (UniProt Q9H4B0)”?
probe-labelled cysteine peptide fold change (10 µM): -0.0724; probe-labelled cysteine peptide fold change (50 µM): -0.383
